Data taken from PubChem BioAssay AID1053133, deposited by Broad Institute (2014).

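Plate-reader measure of the Venus reporter marking one vaccinia stage in infected cells (the cell line is not named here); read time unknown. The test concentration is not given here. Percent change in Venus reporter signal; lower (more negative) values mean stronger inhibition of that viral stage.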

Values are in %. How 0% and 100% were set is not given here. Common to all entries: measured here: Venus reporter, other viral stage. This is a side read-out of the assay, for part of the compounds, not drawn at random.

SMILES	activity change (Venus) (%)
CC(C)NC(=O)Nc1ccc2c(c1)C(=O)N([C@@H](C)CO)C[C@@H](C)[C@@H](CN(C)C(=O)Nc1cccc3ccccc13)OCCCC[C@@H](C)O2	-15.88
C[C@@H]1CN([C@H](C)CO)C(=O)c2cccc(NC(=O)Nc3ccc(C(F)(F)F)cc3)c2O[C@@H]1CN(C)C(=O)Nc1ccc(C(F)(F)F)cc1	-53.07
OC[C@@H]1[C@H](c2ccc(-c3ccc(F)cc3)cc2)[C@H]2CN(Cc3ccncc3)CCCCN12	-21.27
Cc1noc(C)c1S(=O)(=O)Nc1ccc2c(c1)C(=O)N([C@@H](C)CO)C[C@@H](C)[C@@H](CN(C)CC1CCCCC1)OCCCC[C@@H](C)O2	-51.1
Cc1noc(C)c1S(=O)(=O)N(C)C[C@H]1OCCCC[C@H](C)Oc2ccc(NS(=O)(=O)c3cccs3)cc2C(=O)N([C@@H](C)CO)C[C@@H]1C	-23.48
C[C@H](CO)N1C[C@H](C)[C@H](CN(C)Cc2ccc3c(c2)OCO3)OCCCC[C@H](C)Oc2ccc(NC(=O)Nc3ccc(C(F)(F)F)cc3)cc2C1=O	-47.44
C[C@H](CO)N1C[C@H](C)[C@@H](CN(C)C(=O)Cc2ccccc2)Oc2cc(C3=CCCCC3)ccc2S1(=O)=O	-48.17
CO[C@H]1CN(C)C(=O)c2ccc(NC(=O)c3nc4ccccc4s3)cc2OC[C@@H](C)N(Cc2ccncc2)C[C@@H]1C	-55.86
COc1cccc(-c2ccc([C@H]3[C@H]4CN(C(=O)Cc5ccncc5)CCCCN4[C@H]3CO)cc2)c1	-53.55
C[C@H]1CCCCO[C@@H](CN(C)C(=O)c2ccccc2)[C@@H](C)CN([C@@H](C)CO)C(=O)c2cc(NC(=O)Cc3ccccc3)ccc2O1	-37.81
CC(C)CC#Cc1ccc([C@H]2[C@@H](CO)N3C(=O)CN(C(=O)c4cccc(F)c4)C[C@H]23)cc1	-26.99
O=C(Nc1cc(F)ccc1F)N1CC(=O)N2[C@@H](CO)[C@H](c3ccc(/C=C/c4ccccc4)cc3)[C@@H]2C1	-35.07
N#Cc1cccc(-c2ccc([C@H]3[C@H]4CN(C(=O)Cc5cccnc5)CCCCN4[C@H]3CO)cc2)c1	-33.08
COc1ccc(NC(=O)N2CCCCN3[C@@H](CO)[C@@H](c4ccc(-c5ccccc5C)cc4)[C@@H]3C2)cc1	-84.14
O=C(C1=C[C@H](C2CCCCC2)C[C@H](OCc2ccc(CO)cc2)O1)N1CCN(Cc2ccc3c(c2)OCO3)CC1	-23.38
C[C@@H]1CN([C@@H](C)CO)C(=O)c2c(c3ccccc3n2C)-c2ccccc2CO[C@H]1CN(C)Cc1cccc(O)c1	-40.98
C[C@@H]1CN([C@@H](C)CO)C(=O)c2cc(NC(=O)Nc3ccc(C(F)(F)F)cc3)ccc2O[C@H]1CN(C)Cc1ccccc1	-31.67
COc1ccc2c3c(n(C)c2c1)[C@H](CO)NCC31CN(Cc2ccccc2Cl)C1	-26.91
C[C@@H]1CN([C@@H](C)CO)C(=O)c2c(c3ccccc3n2C)-c2ccccc2CO[C@@H]1CN(C)C(=O)[C@H](Cc1ccccc1)N(C)C	-65.04
C[C@H]1CN([C@@H](C)CO)S(=O)(=O)c2ccc(C#CCN(C)C)cc2O[C@@H]1CN(C)Cc1ccc2c(c1)OCO2	-40.46
C[C@@H]1CN([C@H](C)CO)C(=O)Cc2cc(NC(=O)Cc3cn(C)c4ccccc34)ccc2O[C@H]1CN(C)Cc1ccc(C(F)(F)F)cc1	-26.94
C[C@H](CO)N1C[C@H](C)[C@H](CN(C)S(=O)(=O)c2ccc(Cl)cc2)Oc2c(NC(=O)NC3CCCCC3)cccc2C1=O	-60.84
CCCC#Cc1ccc([C@@H]2[C@H](C#N)N(C(=O)C3CCCC3)[C@H]2CO)cc1	-25.09
C[C@H](CO)N1C[C@H](C)[C@H](CN(C)C(=O)Nc2cccc(F)c2)Oc2cc(/C=C/c3ccccc3)ccc2S1(=O)=O	-42.16
Cc1ccc(S(=O)(=O)N[C@H]2C=C[C@H](CC(=O)NCc3ccc(Cl)c(Cl)c3)O[C@@H]2CO)cc1	-36.76
C[C@@H]1CN([C@H](C)CO)C(=O)c2cc(NS(C)(=O)=O)ccc2O[C@@H](C)CCCCO[C@H]1CN(C)Cc1ccc(Cl)c(Cl)c1	-56.69
O=C(NCc1ccccc1)[C@@]1(Cc2ccccc2)COC(c2ccc(OCCCO)cc2)=N1	-59.88
COc1ccc(C#Cc2ccc([C@H]3[C@@H](CO)N4CCCCN(C(=O)Cc5cccnc5)C[C@H]34)cc2)cc1	-58.25
C[C@@H]1CN([C@H](C)CO)C(=O)c2cc(NS(=O)(=O)c3ccc(F)cc3)ccc2O[C@@H](C)CCCCO[C@@H]1CN(C)Cc1ccccc1	-78.55
OC[C@@H]1[C@H](c2ccc(-c3ccccc3)cc2)[C@H]2CN(CCC(F)(F)F)CCCCN12	-37.13
C[C@@H]1CN([C@@H](C)CO)C(=O)c2cccc(NC(=O)C3CCOCC3)c2O[C@H]1CN(C)Cc1ccc(Oc2ccccc2)cc1	-35.95
CN1c2ccc(-c3cccc(F)c3)cc2[C@H]2[C@H](CCN2C(=O)c2ccc3c(c2)OCO3)[C@H]1CO	-47.82
C[C@H]1CN([C@@H](C)CO)C(=O)Cc2cc(NC(=O)c3ccncc3)ccc2O[C@H]1CN(C)Cc1ccc(-c2ccccc2)cc1	-67.03
COc1ccc(NC(=O)N2CCCCN3[C@H](CO)[C@@H](c4ccc(-c5ccccc5C)cc4)[C@@H]3C2)cc1	-43.06
C[C@@H]1CCCCO[C@@H](CN(C)Cc2ccc(Cl)c(Cl)c2)[C@H](C)CN([C@@H](C)CO)C(=O)c2cc(NS(C)(=O)=O)ccc2O1	-78.92
COc1ccccc1S(=O)(=O)N1CC[C@@H]2[C@H](CO)Nc3ccc(-c4ccccc4)cc3[C@@H]21	-51.07
CCC(=O)N(C)C[C@H]1Oc2cc(C#Cc3ccccc3)ccc2S(=O)(=O)N([C@H](C)CO)C[C@@H]1C	-30.2
Cc1ccc(-c2ccc3c(c2)O[C@@H](CN(C)C(=O)Nc2ccccc2)[C@H](C)CN([C@@H](C)CO)S3(=O)=O)cc1	-64.93
OC[C@@H]1[C@H](c2ccc(C#Cc3ccccc3F)cc2)[C@H]2CN(Cc3cncnc3)CCCCN12	-45.66
C[C@H](CO)N1C[C@H](C)[C@H](CN(C)C(=O)Nc2ccc(C(F)(F)F)cc2)OCCCC[C@H](C)Oc2ccc(NS(=O)(=O)c3cccs3)cc2C1=O	-37.87
COc1ccc(-c2ccc([C@H]3[C@@H](C#N)N(C(=O)C4CC4)[C@H]3CO)cc2)cc1	-21.48
C[C@H]1CN([C@@H](C)CO)C(=O)c2ccccc2-c2ccccc2CO[C@@H]1CN(C)Cc1cccc(C(F)(F)F)c1	-23.16
C[C@@H]1CN([C@H](C)CO)C(=O)c2cccc(NC(=O)Nc3ccc(F)cc3)c2O[C@@H]1CN(C)CC1CCCCC1	-26.31
O=C(c1ccc2c(c1)OCO2)N1CCCCN2[C@@H](CO)[C@@H](c3ccc(-c4ccccc4)cc3)[C@@H]2C1	-56.98
O=C(C1CCCC1)N1CCCCN2[C@H](CO)[C@@H](c3ccc(-c4cccc(F)c4)cc3)[C@@H]2C1	-35.92
Cc1ccccc1-c1ccc([C@H]2[C@@H](CO)N3C(=O)CN(C(=O)Nc4cccc(F)c4)C[C@@H]23)cc1	-23.85
C[C@@H]1CN([C@H](C)CO)C(=O)c2cc(NS(=O)(=O)c3ccc(Cl)cc3)ccc2O[C@@H](C)CCCCO[C@@H]1CN(C)C(=O)c1ccccc1	-44
C[C@@H]1CCCCO[C@@H](CN(C)Cc2ccccc2)[C@@H](C)CN([C@@H](C)CO)C(=O)c2cc(NC(=O)Cc3ccccc3)ccc2O1	-32.49
COc1ccccc1CN1C[C@@H]2N[C@H](C1)C2c1ccc(-c2ccccc2OC)cc1 (some centres not stated)	-40.61
COc1ccc(CN(C)C[C@@H]2OCCCC[C@H](C)Oc3ccc(NC(=O)CCC(F)(F)F)cc3C(=O)N([C@@H](C)CO)C[C@H]2C)cc1	-41.79
CCCNC(=O)N1CC(=O)N2[C@H](CO)[C@@H](c3ccc(C#Cc4cccc(F)c4)cc3)[C@H]2C1	-32.71
COc1ccc(S(=O)(=O)Nc2ccc3c(c2)C(=O)N([C@H](C)CO)C[C@H](C)[C@@H](CN(C)Cc2ccc(Oc4ccccc4)cc2)O3)cc1	-37.85
Cc1ccccc1-c1ccc([C@@H]2[C@@H](CO)N3CCCCN(C(=O)Nc4cccc(F)c4)C[C@@H]23)cc1	-37.09
Cc1noc(C)c1S(=O)(=O)Nc1ccc2c(c1)C(=O)N([C@H](C)CO)C[C@H](C)[C@@H](CN(C)Cc1ccc(C(F)(F)F)cc1)OCCCC[C@H](C)O2	-74.34
C[C@H](CO)N1C[C@H](C)[C@@H](CN(C)C(=O)c2ccc3c(c2)OCO3)Oc2ncc(C3=CCCCC3)cc2C1=O	-53.33

Once more, the final 5:

With CCCNC(=O)N1CC(=O)N2[C@H](CO)[C@@H](c3ccc(C#Cc4cccc(F)c4)cc3)[C@H]2C1 the assay gave activity change (Venus) -32.71%.
With COc1ccc(S(=O)(=O)Nc2ccc3c(c2)C(=O)N([C@H](C)CO)C[C@H](C)[C@@H](CN(C)Cc2ccc(Oc4ccccc4)cc2)O3)cc1 the assay gave activity change (Venus) -37.85%.
With Cc1ccccc1-c1ccc([C@@H]2[C@@H](CO)N3CCCCN(C(=O)Nc4cccc(F)c4)C[C@@H]23)cc1 the assay gave activity change (Venus) -37.09%.
With Cc1noc(C)c1S(=O)(=O)Nc1ccc2c(c1)C(=O)N([C@H](C)CO)C[C@H](C)[C@@H](CN(C)Cc1ccc(C(F)(F)F)cc1)OCCCC[C@H](C)O2 the assay gave activity change (Venus) -74.34%.
With C[C@H](CO)N1C[C@H](C)[C@@H](CN(C)C(=O)c2ccc3c(c2)OCO3)Oc2ncc(C3=CCCCC3)cc2C1=O the assay gave activity change (Venus) -53.33%.